No constants are given. Whether binding was seen depends on the method and setting. Binding seen in cells or lysates may run through a third protein. Some results given as binding are weak or reduced against the parent protein; the word gives no strength.
Target: Aryl hydrocarbon receptor (human (endogenous in HPAF-II)) (UniProt P35869)
Assay: co-IP; HPAF-II cells cultured without and with increasing concentrations of carbidopa; whole cell lysates; immunoprecipitation with anti-AhR or anti-STAT1 antibody, rabbit IgG isotype control; SDS-PAGE and Western blotting

Protein sequences, listed by entry. Tags and fused reporters are not part of them. Residues count along the entry.
UniProt P35869, residues 11-848: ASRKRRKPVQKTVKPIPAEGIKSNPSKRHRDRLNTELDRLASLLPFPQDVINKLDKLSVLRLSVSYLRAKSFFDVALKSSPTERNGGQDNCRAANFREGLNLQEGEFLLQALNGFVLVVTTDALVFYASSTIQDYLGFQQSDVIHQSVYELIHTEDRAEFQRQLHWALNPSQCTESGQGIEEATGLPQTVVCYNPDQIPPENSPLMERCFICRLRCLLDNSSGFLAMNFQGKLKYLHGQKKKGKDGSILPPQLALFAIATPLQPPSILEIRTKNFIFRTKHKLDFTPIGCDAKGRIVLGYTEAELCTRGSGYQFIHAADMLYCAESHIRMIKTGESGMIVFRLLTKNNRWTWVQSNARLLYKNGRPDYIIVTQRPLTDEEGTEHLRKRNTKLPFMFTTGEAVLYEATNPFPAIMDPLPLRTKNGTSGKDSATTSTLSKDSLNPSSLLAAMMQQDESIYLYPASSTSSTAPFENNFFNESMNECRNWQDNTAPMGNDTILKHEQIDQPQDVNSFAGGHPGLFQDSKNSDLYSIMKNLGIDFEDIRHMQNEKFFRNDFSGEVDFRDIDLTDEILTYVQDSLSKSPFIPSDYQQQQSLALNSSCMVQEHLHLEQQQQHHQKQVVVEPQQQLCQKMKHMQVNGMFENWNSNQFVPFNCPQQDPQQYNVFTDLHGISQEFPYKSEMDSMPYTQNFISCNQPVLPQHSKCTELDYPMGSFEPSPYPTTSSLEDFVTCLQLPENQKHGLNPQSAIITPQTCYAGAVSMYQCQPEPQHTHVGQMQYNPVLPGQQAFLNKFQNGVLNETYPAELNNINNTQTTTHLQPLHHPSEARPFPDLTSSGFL
UniProt P42224: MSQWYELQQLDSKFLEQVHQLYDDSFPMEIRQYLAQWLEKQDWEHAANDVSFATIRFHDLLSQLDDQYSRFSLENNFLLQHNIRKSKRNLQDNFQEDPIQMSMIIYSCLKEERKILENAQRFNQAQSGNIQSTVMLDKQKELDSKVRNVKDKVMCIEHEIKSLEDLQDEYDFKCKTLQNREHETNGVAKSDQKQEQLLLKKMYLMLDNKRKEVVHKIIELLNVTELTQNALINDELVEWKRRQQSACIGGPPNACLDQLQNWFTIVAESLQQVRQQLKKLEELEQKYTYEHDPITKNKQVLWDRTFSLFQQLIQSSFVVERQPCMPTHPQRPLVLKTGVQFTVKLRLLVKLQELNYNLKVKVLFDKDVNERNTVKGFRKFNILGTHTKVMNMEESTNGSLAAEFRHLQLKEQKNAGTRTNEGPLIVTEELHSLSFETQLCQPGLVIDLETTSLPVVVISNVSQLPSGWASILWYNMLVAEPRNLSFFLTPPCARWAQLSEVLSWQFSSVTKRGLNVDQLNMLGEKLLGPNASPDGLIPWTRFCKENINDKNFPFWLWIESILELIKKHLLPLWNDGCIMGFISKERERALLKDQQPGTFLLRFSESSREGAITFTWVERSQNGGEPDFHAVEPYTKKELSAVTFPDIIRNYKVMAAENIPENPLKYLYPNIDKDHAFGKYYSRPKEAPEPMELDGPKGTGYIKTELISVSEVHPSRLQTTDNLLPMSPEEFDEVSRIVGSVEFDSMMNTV

| Substance | binding |
| --- | --- |
| Phospho-STAT1 (from UniProt P42224 1-750) | binds |
| Signal transducer and activator of transcription 1, total form (from UniProt P42224 1-750) | binds |

From paper PMC9472820
